Measurements reported in doi:10.1101/2025.08.27.672337.
These are yes or no findings as the source states them, for the method shown. Some results given as binding are weak or reduced against the parent protein; the word gives no strength.

Protein sequences, listed by entry. Tags and fused reporters are not part of them. Lines headed by an entry give the natural chain unless they say otherwise; changes in a name come on top. Chains listed by the source or under a name are the forms on record and can include a tag or linker. Residues count along the entry.
talin1 R7R8 (P26039, residues 1357-1659): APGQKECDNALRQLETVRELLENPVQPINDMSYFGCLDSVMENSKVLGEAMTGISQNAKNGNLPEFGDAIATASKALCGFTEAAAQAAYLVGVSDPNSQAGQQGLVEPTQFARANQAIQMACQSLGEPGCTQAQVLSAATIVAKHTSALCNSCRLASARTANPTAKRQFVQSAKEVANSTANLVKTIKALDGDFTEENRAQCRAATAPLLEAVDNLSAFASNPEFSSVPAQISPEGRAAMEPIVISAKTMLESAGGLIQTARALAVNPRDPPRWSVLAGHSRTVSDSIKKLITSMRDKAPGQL
talin1 R8 (P26039, residues 1461-1580): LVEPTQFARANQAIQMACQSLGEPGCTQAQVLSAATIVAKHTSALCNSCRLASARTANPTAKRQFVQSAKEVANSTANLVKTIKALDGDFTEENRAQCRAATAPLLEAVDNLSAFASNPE
talin1 R7 (P26039, form named): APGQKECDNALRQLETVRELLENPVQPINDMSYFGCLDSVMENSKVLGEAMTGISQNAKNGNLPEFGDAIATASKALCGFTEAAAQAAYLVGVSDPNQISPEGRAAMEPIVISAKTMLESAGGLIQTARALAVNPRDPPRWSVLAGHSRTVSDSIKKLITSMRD
PSD-95 PDZ2 domain (P78352, residues 155-249): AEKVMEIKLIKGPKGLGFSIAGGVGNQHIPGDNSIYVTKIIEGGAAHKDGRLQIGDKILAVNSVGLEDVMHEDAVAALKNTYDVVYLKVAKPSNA
PSD-95 PDZ3 domain (P78352, residues 302-402): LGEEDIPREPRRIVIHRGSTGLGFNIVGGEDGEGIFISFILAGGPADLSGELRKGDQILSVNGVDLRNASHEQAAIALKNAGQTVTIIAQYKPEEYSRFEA
UniProt P06493: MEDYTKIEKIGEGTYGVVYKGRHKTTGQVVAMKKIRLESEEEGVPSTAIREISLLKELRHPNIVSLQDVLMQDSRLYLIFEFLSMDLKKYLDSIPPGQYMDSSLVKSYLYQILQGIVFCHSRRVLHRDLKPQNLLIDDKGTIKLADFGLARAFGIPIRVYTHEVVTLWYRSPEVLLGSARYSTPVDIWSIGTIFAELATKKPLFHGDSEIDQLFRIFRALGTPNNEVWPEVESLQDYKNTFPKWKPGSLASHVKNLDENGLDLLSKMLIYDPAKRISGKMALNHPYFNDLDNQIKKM

Assays:
[1] = target: talin1 R7R8 (mouse) (UniProt P26039); assay: fluorescence polarisation
[2] = target: T1, SHANK2 PDZ domain (mouse) (UniProt Q80Z38); assay: fluorescence polarisation
T1 sequence: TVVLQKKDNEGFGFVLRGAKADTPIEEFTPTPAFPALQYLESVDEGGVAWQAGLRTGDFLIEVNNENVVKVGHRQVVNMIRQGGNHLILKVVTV

[3] = target: T2, SHANK3 PDZ domain (mouse) (UniProt Q4ACU6); assay: fluorescence polarisation
T2 sequence: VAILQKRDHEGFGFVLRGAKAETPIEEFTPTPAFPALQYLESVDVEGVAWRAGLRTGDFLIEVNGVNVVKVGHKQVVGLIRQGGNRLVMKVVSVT

[4] = target: T1, SHANK2 PDZ domain (mouse); assay: NMR titration
[5] = target: talin1 R7 (mouse) (UniProt P26039); assay: NMR titration
[6] = target: talin1 R8 (mouse) (UniProt P26039); assay: NMR titration
[7] = target: PSD-95 PDZ2 domain (human) (UniProt P78352); assay: fluorescence polarisation
[8] = target: PSD-95 PDZ3 domain (human) (UniProt P78352); assay: fluorescence polarisation

Molecule: CDK1^206-223 peptide, dye-labelled for FP (from UniProt P06493 206-223)
- binding [1]: binds

Molecule: CYNRTNRSRMPNLNDLKETAD (peptide, UniProt O76039-2 941-960, maleimide-fluorescein coupled to the non-native N-terminal cysteine) [CDKL5-1^941-960 L960D peptide, fluorescein-labelled]
- binding [2]: no binding
- binding [3]: no binding

Molecule: CYNRTNRSRMPNLNDLKETAD (peptide, UniProt O76039-2 941-960) [CDKL5-1^941-960 L960D peptide, unlabelled]
- binding [4]: no binding (tested: 1:3 molar ratio)

Molecule: CGESEIDQLFTIQKVLGPLPSEQ (peptide, UniProt O76039-2 213-234) [CDKL5^213-234 peptide (NMR)]
- binding [5]: no binding (tested: 1:3 molar ratio)

Molecule: CGESEIDQAATIQKVLGPLPSEQ (peptide, UniProt O76039-2 213-234) [CDKL5^213-234 2A peptide (L220A, F221A)]
- binding [6]: no binding (tested: 1:3 ratio)

Molecule: CAQVNQAALLTYHENAALTGK (peptide, UniProt O76039-1 1011-1030, maleimide-fluorescein coupled to the non-native N-terminal cysteine) [CDKL5-2^1011-1030 peptide, fluorescein-labelled]
- binding [7]: no binding
- binding [8]: no binding
- binding [2]: no binding
- binding [3]: no binding
